Values from PubChem BioAssay AID1259425 (University of Nebraska Medical Center, 2018)

- Assay: 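Find knockdowns that reproduce the gene expression pattern seen when KSR1 is lost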 (primary screen)
- System: HCT116 human colon cancer cells
- Reagents: siRNA pool against human genes, 50 nM siRNA
- Detection: 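mRNA of six signature genes measured together by branched-DNA assay after 50 nM siRNA pool, blank removed, divided by geometric mean of two housekeeping genes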
- Direction: BNIP3L mRNA: higher = more BNIP3L transcript after knockdown; NDRG1 mRNA: higher = more NDRG1 transcript after knockdown
Shown is one part, drawn at random, of about 14,000 reagents. Further read-outs or replicates are left out here. No sequences are given here. Not given: the time to read-out.

MR1 (GeneID 3140) | BNIP3L mRNA, set 1 = 0.103; NDRG1 mRNA, set 1 = 0.152
MKRN4P (GeneID 7682) | BNIP3L mRNA, set 1 = 0.121; NDRG1 mRNA, set 1 = 0.115
DNA2 (GeneID 1763) | BNIP3L mRNA, set 1 = 0.126; NDRG1 mRNA, set 1 = 0.294
AKR1C8 (GeneID 340811) | BNIP3L mRNA, set 1 = 0.0624; NDRG1 mRNA, set 1 = 0.151
PPP3R2 (GeneID 5535) | BNIP3L mRNA, set 1 = 0.0541; NDRG1 mRNA, set 1 = 0.369
ENPP2 (GeneID 5168) | BNIP3L mRNA, set 1 = 0.152; NDRG1 mRNA, set 1 = 0.617
NFE2 (GeneID 4778) | BNIP3L mRNA, set 1 = 0.0588; NDRG1 mRNA, set 1 = 0.176
THNSL1 (GeneID 79896) | BNIP3L mRNA, set 1 = 0.106; NDRG1 mRNA, set 1 = 0.455
SYT1 (GeneID 6857) | BNIP3L mRNA, set 1 = 0.0826; NDRG1 mRNA, set 1 = 0.332
EXOSC7 (GeneID 23016) | BNIP3L mRNA, set 1 = 0.0974; NDRG1 mRNA, set 1 = 0.0741
HSBP1 (GeneID 3281) | BNIP3L mRNA, set 1 = 0.181; NDRG1 mRNA, set 1 = 0.211
SPATA2 (GeneID 9825) | BNIP3L mRNA, set 1 = 0.126; NDRG1 mRNA, set 1 = 0.311

2 of these entries in another layout:
MKRN4P (GeneID 7682)
- BNIP3L mRNA, set 1: 0.121
- NDRG1 mRNA, set 1: 0.115

DNA2 (GeneID 1763)
- BNIP3L mRNA, set 1: 0.126
- NDRG1 mRNA, set 1: 0.294

More records follow.
KLF3-AS1 (GeneID 79667) | BNIP3L mRNA, set 1 = 0.125; NDRG1 mRNA, set 1 = 0.33
AREG (GeneID 374) | BNIP3L mRNA, set 1 = 0.1; NDRG1 mRNA, set 1 = 0.129
TEF (GeneID 7008) | BNIP3L mRNA, set 1 = 0.0874; NDRG1 mRNA, set 1 = 0.241
BORCS8-MEF2B (GeneID 4207) | BNIP3L mRNA, set 1 = 0.0775; NDRG1 mRNA, set 1 = 0.0673
CHI3L2 (GeneID 1117) | BNIP3L mRNA, set 1 = 0.0821; NDRG1 mRNA, set 1 = 0.097
CYBRD1 (GeneID 79901) | BNIP3L mRNA, set 1 = 0.0545; NDRG1 mRNA, set 1 = 0.203
CINP (GeneID 51550) | BNIP3L mRNA, set 1 = 0.0508; NDRG1 mRNA, set 1 = 0.116
